Measurements as given in PMC12786370.
These are yes or no findings as the source states them, for the method shown. In cells and extracts the contact can be indirect. Some binding calls cover weakened binding; strength is not graded here. Sequences can lack the tags named with a protein.

Chains of the proteins cited; added tags and fusions are not shown.
UniProt P67809: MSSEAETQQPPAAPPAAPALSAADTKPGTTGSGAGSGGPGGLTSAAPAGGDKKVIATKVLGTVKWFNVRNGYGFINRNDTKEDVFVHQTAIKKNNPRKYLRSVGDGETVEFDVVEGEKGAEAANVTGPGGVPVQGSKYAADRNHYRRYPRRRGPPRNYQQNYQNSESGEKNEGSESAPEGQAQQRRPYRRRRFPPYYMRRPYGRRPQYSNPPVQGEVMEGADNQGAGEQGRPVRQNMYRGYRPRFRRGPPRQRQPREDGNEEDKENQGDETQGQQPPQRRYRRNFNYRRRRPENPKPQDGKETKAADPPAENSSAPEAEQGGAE

Legend:
[1] = target: T1, CXCL2 lacking the signal peptide (ΔCXCL2), Flag-tagged, overexpressed in HCC cells (UniProt P19875); assay: co-IP; CXCL2/ΔCXCL2 overexpression HCC cells, precipitated with anti-Flag antibody
T1 sequence: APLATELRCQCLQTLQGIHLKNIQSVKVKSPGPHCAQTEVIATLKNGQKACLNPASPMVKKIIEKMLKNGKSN

[2] = target: T2, C-X-C motif chemokine ligand 2 (CXCL2), Flag-tagged, full length, overexpressed in HCC cells (UniProt P19875); assay: as above
T2 sequence: T1 sequence

binding [1]: binds | binding [2]: binds
Substance: Y-Box Binding Protein 1 (YBX1) in HCC cells (from UniProt P67809 1-324)
